{"source": "the supplement of paper PMC8728848", "experiment_in_all_cases": "glycan array binding signal (z-score within array); higher = stronger binding", "details_in_all_cases": "glycan notation: IUPAC condensed, linker removed", "key": {"Fuc(a1-2)Gal": {"target": "Fuc(a1-2)Gal", "method_in_brief": "(§1)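 Glycan array binding is given as a within-array Z-score, which can be read as non-binding when negative. The arrays, 3228 of them, came from the Consortium for Functional Glycomics database and were retained only where the protein sequence was available. Z-scores were averaged across arrays of the same protein sequence at different concentrations or buffers and across linkers.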"}, "Fuc(a1-2)Gal(b1-3)GalNAc": {"target": "Fuc(a1-2)Gal(b1-3)GalNAc", "method_in_brief": "as §1"}, "[1]": {"target": "Fuc(a1-2)Gal(b1-3)GalNAc(a1-3)[Fuc(a1-2)]Gal(b1-4)Glc", "method_in_brief": "as §1"}, "[2]": {"target": "Fuc(a1-2)Gal(b1-3)GalNAc(a1-3)[Fuc(a1-2)]Gal(b1-4)GlcNAc", "method_in_brief": "as §1"}, "[3]": {"target": "Fuc(a1-2)Gal(b1-3)GalNAc(b1-3)Gal", "method_in_brief": "as §1"}, "[4]": {"target": "Fuc(a1-2)Gal(b1-3)GalNAc(b1-3)Gal(a1-4)Gal(b1-4)Glc", "method_in_brief": "as §1"}, "[5]": {"target": "Fuc(a1-2)Gal(b1-3)GalNAc(b1-4)[Neu5Ac(a2-3)]Gal(b1-4)Glc", "method_in_brief": "as §1"}, "Fuc(a1-2)Gal(b1-3)GlcNAc": {"target": "Fuc(a1-2)Gal(b1-3)GlcNAc", "method_in_brief": "as §1"}, "[6]": {"target": "Fuc(a1-2)Gal(b1-3)GlcNAc(b1-2)Man(a1-3)[Fuc(a1-2)Gal(b1-3)GlcNAc(b1-2)Man(a1-6)]Man(b1-4)GlcNAc(b1-4)GlcNAc", "method_in_brief": "as §1"}, "[7]": {"target": "Fuc(a1-2)Gal(b1-3)GlcNAc(b1-2)Man(a1-3)[Fuc(a1-2)Gal(b1-3)GlcNAc(b1-2)Man(a1-6)]Man(b1-4)GlcNAc(b1-4)[Fuc(a1-6)]GlcNAc", "method_in_brief": "as §1"}, "[8]": {"target": "Fuc(a1-2)Gal(b1-3)GlcNAc(b1-3)Gal(b1-4)Glc", "method_in_brief": "as §1"}, "[9]": {"target": "Fuc(a1-2)Gal(b1-3)GlcNAc(b1-3)GalNAc", "method_in_brief": "as §1"}, "[10]": {"target": "Fuc(a1-2)Gal(b1-3)GlcNAc(b1-3)[Fuc(a1-3)[Gal(b1-4)]GlcNAc(b1-6)]Gal(b1-4)Glc", "method_in_brief": "as §1"}, "[11]": {"target": "Fuc(a1-2)Gal(b1-3)GlcNAc(b1-3)[Gal(b1-4)GlcNAc(b1-6)]Gal(b1-4)Glc", "method_in_brief": "as §1"}, "[12]": {"target": "Fuc(a1-2)Gal(b1-3)GlcNAc(b1-3)[Neu5Ac(a2-6)Gal(b1-4)GlcNAc(b1-6)]Gal(b1-4)Glc", "method_in_brief": "as §1"}, "[13]": {"target": "Fuc(a1-2)Gal(b1-3)[Fuc(a1-4)]GlcNAc", "method_in_brief": "as §1"}, "[14]": {"target": "Fuc(a1-2)Gal(b1-3)[Fuc(a1-4)]GlcNAc(b1-2)Man(a1-3)[Fuc(a1-2)Gal(b1-3)[Fuc(a1-4)]GlcNAc(b1-2)Man(a1-6)]Man(b1-4)GlcNAc(b1-4)GlcNAc", "method_in_brief": "as §1"}, "[15]": {"target": "Fuc(a1-2)Gal(b1-3)[Fuc(a1-4)]GlcNAc(b1-3)[Fuc(a1-3)[Gal(b1-4)]GlcNAc(b1-6)]Gal(b1-4)Glc", "method_in_brief": "as §1"}, "[16]": {"target": "Fuc(a1-2)Gal(b1-3)[Fuc(a1-4)]GlcNAc(b1-3)[Gal(b1-4)GlcNAc(b1-6)]Gal(b1-4)Glc", "method_in_brief": "as §1"}, "Fuc(a1-2)Gal(b1-4)Glc": {"target": "Fuc(a1-2)Gal(b1-4)Glc", "method_in_brief": "as §1"}, "Fuc(a1-2)Gal(b1-4)Glc6S": {"target": "Fuc(a1-2)Gal(b1-4)Glc6S", "method_in_brief": "as §1"}, "Fuc(a1-2)Gal(b1-4)GlcNAc": {"target": "Fuc(a1-2)Gal(b1-4)GlcNAc", "method_in_brief": "as §1"}, "[17]": {"target": "Fuc(a1-2)Gal(b1-4)GlcNAc(b1-2)Man(a1-3)[Fuc(a1-2)Gal(b1-4)GlcNAc(b1-2)Man(a1-6)]Man(b1-4)GlcNAc(b1-4)GlcNAc", "method_in_brief": "as §1"}, "[18]": {"target": "Fuc(a1-2)Gal(b1-4)GlcNAc(b1-2)Man(a1-3)[Fuc(a1-2)Gal(b1-4)GlcNAc(b1-2)Man(a1-6)]Man(b1-4)GlcNAc(b1-4)[Fuc(a1-6)]GlcNAc", "method_in_brief": "as §1"}, "[19]": {"target": "Fuc(a1-2)Gal(b1-4)GlcNAc(b1-2)[Fuc(a1-2)Gal(b1-4)GlcNAc(b1-4)]Man(a1-3)[Fuc(a1-2)Gal(b1-4)GlcNAc(b1-2)Man(a1-6)]Man(b1-4)GlcNAc(b1-4)GlcNAc", "method_in_brief": "as §1"}, "[20]": {"target": "Fuc(a1-2)Gal(b1-4)GlcNAc(b1-3)Gal(b1-4)GlcNAc", "method_in_brief": "as §1"}, "[21]": {"target": "Fuc(a1-2)Gal(b1-4)GlcNAc(b1-3)Gal(b1-4)GlcNAc(b1-3)Gal(b1-4)GlcNAc", "method_in_brief": "as §1"}, "[22]": {"target": "Fuc(a1-2)Gal(b1-4)GlcNAc(b1-3)GalNAc", "method_in_brief": "as §1"}, "[23]": {"target": "Fuc(a1-2)Gal(b1-4)GlcNAc(b1-3)[Fuc(a1-2)Gal(b1-4)GlcNAc(b1-6)]GalNAc", "method_in_brief": "as §1"}, "[24]": {"target": "Fuc(a1-2)Gal(b1-4)GlcNAc6S", "method_in_brief": "as §1"}}, "note": "The list shows a part of the results.", "data": [{"binder": "PGP3 (Chlamydia trachomatis), P0CE18 (protein) MGNSGFYLYNTQNCVFADNIKVGQMTEPLKDQQIILGTTSTPVAAKMTASDGISLTVSNNPSTNASITIGLDAEKAYQLILEKLGDQILGGIADTIVDSTVQDILDKITTDPSLGLLKAFNNFPITNKIQCNGLFTPRNIETLLGGTEIGKFTVTPKSSGSMFLVSADIIASRMEGGVVLALVREGDSKPYAISYGYSSGVPNLCSLRTRIINTGLTPTTYSLRVGGLESGVVWVNALSNGNDILGITNTSNVSFLEVIPQTNA", "values": [{"measurement": "glycan array binding signal (z-score)", "setting": "Fuc(a1-2)Gal", "value": 2.47}, {"measurement": "glycan array binding signal (z-score)", "setting": "Fuc(a1-2)Gal(b1-3)GalNAc", "value": 0.021}, {"measurement": "glycan array binding signal (z-score)", "setting": "[1]", "value": 0.938}, {"measurement": "glycan array binding signal (z-score)", "setting": "[2]", "value": -0.089}, {"measurement": "glycan array binding signal (z-score)", "setting": "[3]", "value": -0.356}, {"measurement": "glycan array binding signal (z-score)", "setting": "[4]", "value": -0.815}, {"measurement": "glycan array binding signal (z-score)", "setting": "[5]", "value": -0.647}, {"measurement": "glycan array binding signal (z-score)", "setting": "Fuc(a1-2)Gal(b1-3)GlcNAc", "value": -0.002}, {"measurement": "glycan array binding signal (z-score)", "setting": "[6]", "value": 0.71}, {"measurement": "glycan array binding signal (z-score)", "setting": "[7]", "value": 0.775}, {"measurement": "glycan array binding signal (z-score)", "setting": "[8]", "value": -0.587}, {"measurement": "glycan array binding signal (z-score)", "setting": "[9]", "value": -0.514}, {"measurement": "glycan array binding signal (z-score)", "setting": "[10]", "value": 0.095}, {"measurement": "glycan array binding signal (z-score)", "setting": "[11]", "value": 0.289}, {"measurement": "glycan array binding signal (z-score)", "setting": "[12]", "value": -0.576}, {"measurement": "glycan array binding signal (z-score)", "setting": "[13]", "value": -0.264}, {"measurement": "glycan array binding signal (z-score)", "setting": "[14]", "value": -0.368}, {"measurement": "glycan array binding signal (z-score)", "setting": "[15]", "value": -0.443}, {"measurement": "glycan array binding signal (z-score)", "setting": "[16]", "value": 0.103}, {"measurement": "glycan array binding signal (z-score)", "setting": "Fuc(a1-2)Gal(b1-4)Glc", "value": -0.803}, {"measurement": "glycan array binding signal (z-score)", "setting": "Fuc(a1-2)Gal(b1-4)Glc6S", "value": -0.486}, {"measurement": "glycan array binding signal (z-score)", "setting": "Fuc(a1-2)Gal(b1-4)GlcNAc", "value": 1.28}, {"measurement": "glycan array binding signal (z-score)", "setting": "[17]", "value": -0.053}, {"measurement": "glycan array binding signal (z-score)", "setting": "[18]", "value": -0.158}, {"measurement": "glycan array binding signal (z-score)", "setting": "[19]", "value": 2.62}, {"measurement": "glycan array binding signal (z-score)", "setting": "[20]", "value": -0.699}, {"measurement": "glycan array binding signal (z-score)", "setting": "[21]", "value": -0.571}, {"measurement": "glycan array binding signal (z-score)", "setting": "[22]", "value": -0.835}, {"measurement": "glycan array binding signal (z-score)", "setting": "[23]", "value": 0.262}, {"measurement": "glycan array binding signal (z-score)", "setting": "[24]", "value": 0.516}]}]}
